Results are given in words; binding and its absence hold for the method and conditions named. Binding seen in cells or lysates may run through a third protein. Binding calls can cover weak binding; strength is not graded here.
Molecular target: GmCRY1b-YFP (soybean (Glycine max)) (UniProt D0FZ12)
Assay: co-IP; leaves of the GmCRY1b-YFP-1 line transiently expressing 3×Flag-GmRGAa or 3×Flag-GmRGAb; dark-adapted leaves kept in the dark or exposed to blue light (50 μmol m^-2 s^-1) for 3 h; GFP-Trap agarose, 4 °C, 4 h; anti-Flag blot

Substance: 3×Flag-GmRGAb (from UniProt I1KRT7)
- binding: binds

From article PMC10821915
